AC50 data for 62 compounds are collected here from PubChem BioAssay AID493014 (National Center for Advancing Translational Sciences (NCATS), 2011).

This test can be described thus: qHTS Assay to Find Inhibitors of Chronic Active B-Cell Receptor Signaling. To be noted: ABC-DLBCL IkBa-CBG/CBR reporter, luminescence ratio (green luciferase fused to IkBa over red control in TMD8 lymphoma cells), 4 h. Summed up:
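Concentration-response series (up to 46 uM) were applied to TMD8 dual-reporter cells for 4 h at 37C with doxycycline. Green/red ratio, after filter-overlap correction, defined %Activity; red signal alone was normalised to basal cells and zero luminescence.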

Setting [1] is: measured here: CBR red luminescence, cell number.
Where [2] appears, read: measured here: IkBa-CBG green luminescence.

Usually AC50 stands for the concentration at which the activity in the assay is half-maximal.

This is one part of the list. Further columns of the screen follow, without active or inactive calls. Compounds called inactive in the main read-out are mostly missing here. Words in brackets tell the shape of the fitted curve; partial curves, single points and poor fits give uncertain potencies.

Turning to `O=C(NS(=O)(=O)c1ccccc1)c1ccccc1`, under setting [1], the AC50 was 0.731 µM [rising, full curve, poor fit].
As to `Cc1ccc(SCc2ccc(C(=O)Nc3nccs3)o2)cc1`, the AC50 under setting [1] was 8.91 µM [falling, partial curve, poor fit].
On the same count and under the same terms, next, `CCOC(=O)C1(Cc2ccc(Cl)cc2)CCN(C(C)Cc2ccc(O)c(OC)c2)CC1` (centres undefined): 15.8 µM [falling, partial curve]; `Cc1ccc(Nc2nnc(SCC(=O)Nc3cccc(S(=O)(=O)NC4=NCCCCC4)c3)s2)cc1`: 11.6 µM [falling, partial curve, poor fit]; `COc1ccc2oc(C)c(C(=O)c3ccc([N+](=O)[O-])cc3)c2c1`: 0.651 µM [rising, partial curve, poor fit].
Still for that read-out and setting: next, `COc1c(C)cc(C(=O)C2CCCN(Cc3ccc(Oc4ncccn4)cc3)C2)cc1C` (centres undefined): 2.24 µM [rising, partial curve]; `CCOc1ccc(CCNC(=O)CS(=O)Cc2nc(-c3ccc(C)cc3)oc2C)cc1OCC` (centres undefined): 0.891 µM [rising, full curve, poor fit]; `O=C(Cn1cnc2c(OCc3ccccc3)ncnc21)NCc1nc2ccccc2[nH]1`: 7.31 µM [rising, partial curve, poor fit].
Turning to `CC(C)(C)N(Cc1ccccc1)C(=O)COC(=O)c1cccc([N+](=O)[O-])c1`, the half-maximal activity concentration (AC50) under setting [1] is 8.91 µM [rising, partial curve, poor fit].
On to `CC1CCN(C(=O)CN2C(=O)C(=O)N(C)C2=O)c2ccccc2S1` (centres undefined), for which the AC50 under setting [1] was 18.4 µM [rising, single point].
For the compound `COC(=O)CNC(c1ccccc1)c1cc(Br)ccc1NC(=O)OCc1ccccc1` (centres undefined), the AC50 under setting [1] was 31.6 µM [falling, partial curve, poor fit].
Still for that read-out and setting: the same measure for `CNC(=O)c1ccsc1NC(=O)c1coc2ccccc2c1=O`: 4.47 µM [rising, partial curve, poor fit]; for `COC(=O)C(NC(C)=O)(Nc1cccc(C)n1)C(F)(F)F` (centres undefined): 7.94 µM [rising, partial curve, poor fit].
Consider `COC(=O)c1cnn2c(C)c(Cc3cccc(F)c3)c(C)nc12`, for which the AC50 under setting [1] was 1.64 µM [falling, partial curve].
Consider `Clc1ccc(-c2csc(-c3cccnc3)n2)s1`, for which, under setting [1], the AC50 was 1.58 µM [rising, full curve, poor fit].
With `Cc1ccc2c(c1C)OC(=O)CC2c1ccccc1` (centres undefined), the AC50 under setting [1] is 2.51 µM [rising, full curve, poor fit].
Turning to `Cc1cc(C)cc(NC(=O)C2CCC(CNC(=O)[C@@H]3Cc4ccccc4CN3)CC2)c1` (some centres undefined), the AC50 under setting [1] was 10 µM [falling, partial curve, poor fit].
Regarding `COc1ccc2cc(C(=O)NCCc3ccccc3)[nH]c2c1`, under setting [1], the AC50 is 3.98 µM [rising, partial curve, poor fit].
`CSc1nccc(Nc2ccccc2)c1C#N`: under setting [1], the AC50 was 17.8 µM [rising, partial curve, poor fit].
As for `CCc1ccc(NC(=O)COC(=O)c2cccs2)cc1`, under setting [1], the concentration at half-maximal activity (AC50) was 11.2 µM [rising, partial curve, poor fit].
As to `CN(C)c1ncc(S(=O)(=O)c2ccccc2)c(-c2ccccc2Cl)n1`, the AC50 under setting [1] is 6.31 µM [rising, full curve].
`O=C(OCc1ccccc1C(F)(F)F)c1cc([N+](=O)[O-])ccc1N1CCOCC1`: under setting [1], the AC50 was 1.41 µM [rising, partial curve, poor fit].
The same measure, in the same setting: the same measure for `O=C(OCc1nnc(-c2ccccc2)o1)c1cc(=O)c2ccccc2o1`: 22.4 µM [falling, single point]; for `Cc1ccc(Nc2nc(Cl)nc(NC(C)(C)C)n2)cc1`: 1.78 µM [falling, partial curve, poor fit].
In the case of `CCN(C(=O)COC(=O)c1cc([N+](=O)[O-])ccc1N1CCOCC1)c1ccccc1`, the AC50 runs as follows: under setting [1], 1.16 µM [rising, full curve]; under setting [2], 23.1 µM [falling, partial curve, poor fit].
Regarding `O=C1NCCCCC1NS(=O)(=O)c1ccc(F)c(F)c1` (centres undefined), the AC50 under setting [1] was 11.2 µM [rising, partial curve, poor fit].
As for `COc1cc(OC)cc(-c2sc3ccc(OC)cc3c2-c2ccc(OCCN3CCCCC3)cc2)c1`, under setting [2], the AC50 was 6.51 µM [falling, partial curve, poor fit].
Turning to `COc1ccc(-c2cccc3c2NC(=O)C3=O)cc1OC`, the AC50 is 18.4 µM [falling, partial curve] under setting [1] and 20.6 µM [falling, single point] under setting [2].
As for `CC1CCc2c(sc3nc(CSc4ncn[nH]4)[nH]c(=O)c23)C1` (centres undefined), the AC50 under setting [1] is 9.2 µM [falling, partial curve].
Take `COc1cc(CN(C)CC2CCCN(CCc3ccccc3F)C2)cc(Cl)c1OC` (centres undefined): the concentration at half-maximal activity (AC50) under setting [1] was 35.5 µM [falling, single point].
`O=C(CN(c1ccc(F)cc1)S(=O)(=O)c1ccc2c(c1)OCCO2)Nc1ccccc1`: under setting [1], the half-maximal activity concentration (AC50) was 3.66 µM [falling, partial curve, poor fit].
`CCN1CC2=C(OC(N)=C(C#N)C2c2ccccc2)/C(=C\c2ccccc2)C1` (centres undefined): under setting [1], the half-maximal activity concentration (AC50) was 8.2 µM [falling, partial curve].
On the same count and under the same terms, next, `Cc1ccc2[nH]c3c(c2c1)CCC3=O`: 1.41 µM [rising, full curve]; `O=[N+]([O-])c1ccc(-c2nc(NCC3CCCO3)c3ccccc3n2)cc1` (centres undefined): 35.5 µM [falling, single point]; `C#CCOCCOCCOCCNc1nc(N2CCN(C(=O)CCCCCCCCCCNC(=O)[C@@H](CCC(=O)O)n3cc(CCCCCN)nn3)CC2)nc(N2CCN(C(=O)CCCCCCCCCCNC(=O)[C@H]([C@@H](C)CC)n3cc(CCCCCN)nn3)CC2)n1`: 29.1 µM [falling, single point].
For `Cc1cc(OCCCCCNCCO)cc(C)c1Cl`, the half-maximal activity concentration (AC50) under setting [1] was 10 µM [falling, partial curve].
`Cc1nnc2ccc(-c3cccc(NC(=O)Cc4cccs4)c3)nn12`: the AC50 under setting [1] is 6.31 µM [rising, partial curve, poor fit].
Take `CCCCNC(=S)N/N=C1\CCCCc2ccccc21`: the AC50 under setting [1] was 29.1 µM [rising, single point].
`CCc1noc(C)c1C(=O)NNC(=O)c1cc(OC)c(OC)c(OC)c1`: the AC50 under setting [1] was 29.1 µM [rising, single point].
The same measure, in the same setting: the same measure for `C/C(=N\NC(=O)c1cccc(C)c1)c1ccc(N2CCOCC2)cc1`: 14.6 µM [falling, partial curve]; for `COc1ccccc1/C=C/C(=O)Nc1cccc(C(C)=O)c1`: 10 µM [falling, partial curve]; for `CC(C)c1nnc(NC(=O)c2cccnc2)s1`: 8.2 µM [falling, single point].
Consider `c1ccc(-c2ccc(CN3CCN(c4ncccn4)CC3)cc2)cc1`, for which, under setting [1], the AC50 is 5.01 µM [rising, partial curve, poor fit].
Same read-out and setting: next, `CCOC(=O)c1cn(Cc2ccccc2)nn1`: 6.51 µM [rising, partial curve]; `CC(=O)Oc1c(Cl)cc(Cl)cc1/C=C/c1ccc2ccccc2n1`: 0.282 µM [rising, full curve, poor fit]; `CC1CC(C)CN(c2nc(N(C)c3ccccc3)nc(N)c2[N+](=O)[O-])C1` (centres undefined): 35.5 µM [rising, single point].
On to `CCS(=O)(=O)c1ccc(Sc2nncn2C)c([N+](=O)[O-])c1`, for which, under setting [1], the AC50 was 28.2 µM [falling, single point].
With `CCOc1ccc(-c2nnc(N3CCOCC3)c3ccccc23)cc1`, the half-maximal activity concentration (AC50) under setting [1] is 35.5 µM [rising, single point].
As to `COc1ccc(OCC(O)CN2C(=O)c3ccccc3C2=O)cc1` (centres undefined), the AC50 under setting [1] was 35.5 µM [rising, single point].
For `O=C(CSc1cccc2cccnc12)N/N=C/c1cccc(O)c1`, the AC50 under setting [1] was 1.41 µM [falling, full curve, poor fit].
On the same count and under the same terms, next, `CCCCn1nc2cc(C(=O)NCc3ccc4c(c3)OCO4)ccc2c1OCC`: 23.1 µM [rising, partial curve, poor fit]; `COc1ccc(C(=O)COC(=O)c2ccc(NC(C)=O)cc2)cc1[N+](=O)[O-]`: 3.98 µM [rising, partial curve, poor fit]; `CCOC(=O)Nc1ccc2c(CN3CCN(S(=O)(=O)c4ccc(C(C)C)cc4)CC3)cc(=O)oc2c1`: 29.1 µM [rising, single point].
`CN=C(Nc1ccccc1)SC1CC(=O)N(c2ccc(C(=O)OC)cc2)C1=O` (centres undefined): the AC50 under setting [1] was 35.5 µM [falling, single point].
`CCCCN(C(=O)CSc1nnnn1C)c1c(N)n(Cc2ccccc2)c(=O)[nH]c1=O`: the AC50 under setting [1] was 6.31 µM [rising, single point].
On to `Cc1nn(Cc2ccc(C(=O)N3c4ccc(F)cc4CCC3C)o2)c(C)c1Br` (centres undefined), for which, under setting [1], the AC50 was 29.1 µM [falling, single point].
Still for that read-out and setting: the same measure for `COc1ccc(-c2nn(-c3ccccc3)cc2CO)cc1OC`: 5.62 µM [rising, partial curve, poor fit]; for `Cc1c(C)n(C)c2ccc(C(=O)NCc3cccs3)cc12`: 29.1 µM [falling, single point].
On the same count and under the same terms, the same measure for `O=C(Cn1cnc2sc(-c3ccccc3)cc2c1=O)NCCc1ccccc1`: 29.1 µM [rising, single point]; for `COc1ccc(S(=O)(=O)N(C)C[C@@H]2Oc3ccc(NC(=O)Nc4c(C)noc4C)cc3C(=O)N([C@H](C)CO)C[C@@H]2C)cc1`: 16.4 µM [falling, single point].
`Cc1ccc(NC(=O)c2cnc3ccccc3n2)cc1C`: under setting [1], the half-maximal activity concentration (AC50) was 0.562 µM [rising, full curve, poor fit].
On the same count and under the same terms, the same measure for `CSCCC(NC(=O)CCC(=O)OCC(=O)[C@@]1(O)CCC2[C@@H]3CCC4=CC(=O)C=C[C@]4(C)C3[C@@H](O)C[C@@]21C)C(=O)O` (some centres undefined): 6.31 µM [rising, partial curve, poor fit].
